Source: patent publication US20250019350A1, “SYNTHESIS OF THE PROSTATE SPECIFIC MEMBRANE ANTIGEN (PSMA) RADIOLABELED INHIBITOR [18F]DCFPYL” (Progenics Pharmaceuticals, Inc, priority 2023, published 2025)

Test: Retention of product on HLB/SepPak cartridge during production (AIO waste line radiodetector)

O=C(O)CC[C@H](NC(=O)N[C@@H](CCCCNC(=O)c1ccc([18F])nc1)C(=O)O)C(=O)O [Lot 18F-DCFPyL, 2-(3-{1-carboxy-5-[(6-[18F]fluoro-pyridine-3-carbonyl)-amino]-pentyl}ureido)-pentanedioic acid]
product retained on the SepPak (pH 2 ascorbate in the collection vial): > 98% | portion of the product not retained on the SepPak (pH 6 ascorbate in the collection vial): approximately 40%
